Assay results: patent US10487068B2, “Pyridazine derivatives as RORc modulators” (Genentech, Inc., priority 2015, dated 2019)
Where “and” joins values, the source holds several entries; their conditions need not be identical. Equal entries are not always repeated. The structures given here were assigned with low confidence; some may be wrong.

Sequences of proteins named here, by UniProt entry; tags and fusion partners are left off. Residues count along the entry.
UniProt P51449, 269-508 limits assumed: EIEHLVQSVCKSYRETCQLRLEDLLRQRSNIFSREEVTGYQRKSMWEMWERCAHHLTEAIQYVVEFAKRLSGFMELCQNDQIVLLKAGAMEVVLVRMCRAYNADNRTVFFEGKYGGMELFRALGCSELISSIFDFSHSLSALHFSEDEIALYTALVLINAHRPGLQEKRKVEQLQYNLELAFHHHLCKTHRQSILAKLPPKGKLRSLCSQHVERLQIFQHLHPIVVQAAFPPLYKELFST

Target: RORc ligand binding domain (Homo sapiens, UniProt P51449)
Test: In Vitro RORc Ligand Binding Assay
Settings: read-out: RORc IC50; radioligand 25-[3H]hydroxycholesterol 6 nM; 0.6 ug/mL RORc receptor; 3 h at 25° C.

CC(C)(O)c1cn(-c2cncc([C@@]34CC[C@@H](c5cc(-c6c(F)cccc6F)nnc53)C4(C)C)n2)cn1
IC50: 4.2 nM and 2.5 nM
